Results taken from PubChem BioAssay AID1259354 (Paczesny and Yang Labs, IUPUI and University of Michigan, 2018).
Screen size: about 78,000 compounds; about 1,800 (2.3%) were called active. Inconclusive means that the source gave no clear call. Such entries were picked first, then a sample of the others. No stated cut-off is given here; in the data, active means inhibition above about 30%; inconclusive means mostly about 10% to 28%; inactive means weaker than that.

Sequences of proteins named here, by UniProt entry; tags and fusion partners are left off. A change or cut given only in a name is not applied to a line headed by its entry.
UniProt Q01638: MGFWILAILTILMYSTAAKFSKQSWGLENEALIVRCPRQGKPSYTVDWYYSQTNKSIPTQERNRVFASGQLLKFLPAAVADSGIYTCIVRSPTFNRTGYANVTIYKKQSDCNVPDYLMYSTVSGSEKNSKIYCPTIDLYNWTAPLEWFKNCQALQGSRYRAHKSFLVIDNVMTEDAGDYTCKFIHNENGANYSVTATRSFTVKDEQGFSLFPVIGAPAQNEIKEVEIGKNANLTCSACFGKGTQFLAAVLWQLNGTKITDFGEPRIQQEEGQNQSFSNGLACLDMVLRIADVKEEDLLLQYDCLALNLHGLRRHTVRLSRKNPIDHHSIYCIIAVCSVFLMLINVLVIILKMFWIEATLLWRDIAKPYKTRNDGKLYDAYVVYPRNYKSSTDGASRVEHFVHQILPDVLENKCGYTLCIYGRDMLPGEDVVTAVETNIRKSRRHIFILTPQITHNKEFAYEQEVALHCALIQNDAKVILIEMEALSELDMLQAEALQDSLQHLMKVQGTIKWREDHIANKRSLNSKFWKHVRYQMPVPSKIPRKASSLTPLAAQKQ

Target: Interleukin-1 receptor-like 1 (Homo sapiens) (UniProt Q01638)
Assay: blocks human ST2 binding to IL-33, primary screen, biochemical, AlphaLISA (AID 1259354)
Conditions: AlphaLISA ST2-Fc/biotin-IL-33 interaction, 1 h; at 17 µM, stronger effect = higher value

| SMILES | inhibition |
| --- | --- |
| O=C(NCCCN1CCOCC1)c1cc(-c2ccc(Br)s2)nc2ccccc12 | inconclusive: 14% |
| COc1ccc2c(=O)c(O)c(-c3ccccc3)oc2c1 | inconclusive: 13% |
| CC1=CC[C@@H]2CN(C(=O)c3cc(CC(C)C)no3)C[C@@H]2C1 | inconclusive: 20% |
| CC1CC(=O)C2=C(C1)OC(N)=C(C#N)C2c1ccc(Cl)c(Cl)c1 (configuration not stated) | inactive |
| CC(C)NCCCOc1ccc(Cl)cc1Br | inactive |
| Cn1c(=O)c2c(n3nnnc13)-c1ccccc1CC21CCCC1 | inconclusive: 19% |
| C/C(Cl)=C\CN1C(=O)C(=O)c2cc(C)ccc21 | inactive |
| O=C(Cn1c(=O)n(-c2ccccc2)c(=O)n1CC(=O)N1CCCCC1)N1CCCCC1 | inconclusive: 22% |
| N#C/C(=C\c1cccs1)c1nc(-c2ccc(Cl)c(Cl)c2)cs1 | inactive |
| COc1ccccc1-n1c(SCC(=O)N2CCCCC2)nc2c(c1=O)SCC2 | inactive |
| Cc1ccccc1CSCCNC(C)CO (configuration not stated) | inconclusive: 28% |
| NC1=C(N2CCCCC2)C(=O)c2ccccc2C1=O | active: 71% |
| Cc1cc(NS(=O)(=O)c2ccc(NC(=O)c3ccc4c(c3)OCO4)cc2)nc(C)n1 | inconclusive: 16% |
| O=C(O)CN1CC2([N+](=O)[O-])CC=C(Br)C([N+](=O)[O-])(C1)C2 (configuration not stated) | inactive |
| NC(=O)CCN(C1CCCCC1)S(=O)(=O)c1cccc2nsnc12 | inconclusive: 12% |
| Cn1c(SCC(=O)Nc2ccc(Br)cc2)nnc1-c1ccc(N)cc1 | inactive |
| Cn1ccnc1SCCNS(=O)(=O)NCc1ccccc1 | active: 31% |
| CC(=O)c1ccc(NC(=O)N2CCC(n3cc(-c4ccsc4)nn3)CC2)cc1 | inactive |
| Cc1ccc(NC(=O)CSc2nc(-c3ccccc3)cc(=O)[nH]2)c(C)c1 | inconclusive: 13% |
| CCOC(=O)c1cccnc1N1CCN(Cc2cccc3nsnc23)CC1 | inactive |
| O=C(c1ccc(Cl)c(Cl)c1)N1CCN(c2ccc([N+](=O)[O-])c(NC3CC3)c2)CC1 | inconclusive: 21% |
| Cc1ccc(-n2c(C)nc3c(cnn3-c3ccc(F)cc3)c2=O)cc1 | inactive |
| CS(=O)(=O)N1C[C@H]2CNC[C@@]2(C(=O)N2CCc3ccccc3C2)C1 | inconclusive: 12% |
| Cc1ccc(NC2=C(NCCO)C(=O)c3ccccc3C2=O)cc1 | active: 51% |
| CCC(=O)N1c2ccccc2-c2nnc(SC)nc2OC1c1ccsc1 (configuration not stated) | inconclusive: 20% |
| CCn1c(C2CCN(C3CCN(c4ccccc4)CC3)CC2)nn(C)c1=O | inactive |
| CC1=C(C(=O)N2CCCC(C(=O)c3ccc(-c4ccccc4)cc3)C2)OCCO1 (configuration not stated) | inconclusive: 18% |

Reprinted at random: 2 entries already listed.

| SMILES | inhibition |
| --- | --- |
| Cc1cc(NS(=O)(=O)c2ccc(NC(=O)c3ccc4c(c3)OCO4)cc2)nc(C)n1 | inconclusive: 16% |
| Cn1ccnc1SCCNS(=O)(=O)NCc1ccccc1 | active: 31% |
